First the molecules themselves.
B1: 162462 with C-terminal Strep-tag (designed binder)
bis-ubiquitin mutein: MQIFVRTPTGKTITLEVEPSDTIENVKAKIQDKEGIPPDQQRLIWAGKQLEDGRTLSDYNIGFAHRLHLVLRLRAAMQIFVMTQTGKTITLEVEPSDTIENVKAKIQDKEGIPPDQQRLIWAGKQLEDGRTLSDYNIWTTTFLHLVLRLRAASAWSHPQFEK
notes: also called Affilin-162462
B2: 161438 with C-terminal Strep-tag (designed binder)
bis-ubiquitin mutein: B1 bis-ubiquitin mutein with P8H, G62S, Q84R
notes: also called Affilin-161438
B3: 164058 with C-terminal Strep-tag (designed binder)
bis-ubiquitin mutein: B1 bis-ubiquitin mutein with P8I
notes: also called Affilin-164058
B4: 185071 with C-terminal Strep-tag (designed binder)
bis-ubiquitin mutein: B1 bis-ubiquitin mutein with P8M, G62W, F63G, A64G, M82L, T140P, T141S, F142I
notes: also called Affilin-185071
B5: 164052 with C-terminal Strep-tag (designed binder)
bis-ubiquitin mutein: B1 bis-ubiquitin mutein with P8G
notes: also called Affilin-164052
B6: 161644 with C-terminal Strep-tag (designed binder)
bis-ubiquitin mutein: B1 bis-ubiquitin mutein with G62S, F63Y
notes: also called Affilin-161644
B7: 163970 with C-terminal Strep-tag (designed binder)
bis-ubiquitin mutein: B1 bis-ubiquitin mutein with R6W, R66L
notes: also called Affilin-163970
B8: 192444 with C-terminal Strep-tag (designed binder)
bis-ubiquitin mutein: B1 bis-ubiquitin mutein with P8L, K33T, M82L, K124T, T140P, T141S, F142I
notes: also called Affilin-192444
B9: 162633 with C-terminal Strep-tag (designed binder)
bis-ubiquitin mutein: B1 bis-ubiquitin mutein with P8W, G62W, F63W, H65D
notes: also called Affilin-162633
B10: 164668 with C-terminal Strep-tag (designed binder)
bis-ubiquitin mutein: B1 bis-ubiquitin mutein with P8M
notes: the form without a stated tag is m27; also called Affilin-164668
B11: SEQ ID NO: 25 (Affilin-164667) with C-terminal Strep-tag (designed binder)
chain: MQIFVKTLTFEHPSFGKTITLEVEPSDTIENVKAKIQDKEGIPPDQQHLYWAGKQLEDGRTLSDYNIKHNTWLELMLFLRAASAWSHPQFEK
B12: 187096 (designed binder)
ubiquitin mutein: MQIFVYTRELKQITLEVEPSDTIENVKAKIQDKEGIPPDQQMLFWKGKQLEDGRTLSDYNIWWNPNLSLNLDLRAA
notes: also called Affilin-187096
B13: 187134 (designed binder)
ubiquitin mutein: B12 ubiquitin mutein with E9V, E16A
notes: also called Affilin-187134
B14: 187131 (designed binder)
ubiquitin mutein: B12 ubiquitin mutein with E9A, D72G
notes: also called Affilin-187131
B15: 187064 (designed binder)
ubiquitin mutein: B12 ubiquitin mutein with R8K, E9Q
notes: also called Affilin-187064
B16: 187092 (designed binder)
ubiquitin mutein: B12 ubiquitin mutein with R8A
notes: also called Affilin-187092
B17: 187093 (designed binder)
ubiquitin mutein: B12 ubiquitin mutein with Y6W, L10F
notes: also called Affilin-187093
B18: SEQ ID NO: 25 (Affilin-164667; motif KHNTW) (designed binder)
chain: MQIFVKTLTFEHPSFGKTITLEVEPSDTIENVKAKIQDKEGIPPDQQHLYWAGKQLEDGRTLSDYNIKHNTWLELMLFLRAA
B19: 161843 (designed binder)
ubiquitin mutein: B18 chain with F10P, E11Q, H12P, S14E, F15W
notes: also called Affilin-161843
B20: 161912 (designed binder)
ubiquitin mutein: B18 chain with F10P, E11P, H12F, P13A, S14F, F15W
notes: also called Affilin-161912
B21: 161717 (designed binder)
ubiquitin mutein: B18 chain with P13H
notes: also called Affilin-161717
B22: 162102 (designed binder)
ubiquitin mutein: B18 chain with F10P, E11I, H12P, S14D, F15W
notes: also called Affilin-162102
B23: 162034 (designed binder)
ubiquitin mutein: B18 chain with F10P, E11Q, H12P, S14E
notes: also called Affilin-162034
B24: 162055 (designed binder)
ubiquitin mutein: B18 chain with P13N, A52V
notes: also called Affilin-162055
B25: 161776 (designed binder)
ubiquitin mutein: B18 chain with P13K
notes: also called Affilin-161776
B26: 161374 (designed binder)
ubiquitin mutein: B18 chain with F10P, E11Q, H12P, S14E, F15Y
notes: also called Affilin-161374
B27: 162462 (designed binder)
bis-ubiquitin mutein: MQIFVRTPTGKTITLEVEPSDTIENVKAKIQDKEGIPPDQQRLIWAGKQLEDGRTLSDYNIGFAHRLHLVLRLRAAMQIFVMTQTGKTITLEVEPSDTIENVKAKIQDKEGIPPDQQRLIWAGKQLEDGRTLSDYNIWTTTFLHLVLRLRAA
notes: also called Affilin-162462
B28: 164058 (designed binder)
bis-ubiquitin mutein: B27 bis-ubiquitin mutein with P8I
notes: also called Affilin-164058
B29: 162633 (designed binder)
bis-ubiquitin mutein: B27 bis-ubiquitin mutein with P8W, G62W, F63W, H65D
notes: also called Affilin-162633
B30: 185113 (designed binder)
bis-ubiquitin mutein: B27 bis-ubiquitin mutein with P8W, Q84H, W138G, T139D, T140G, T141D, F142V
notes: also called Affilin-185113
B31: 164052 (designed binder)
bis-ubiquitin mutein: B27 bis-ubiquitin mutein with P8G
notes: also called Affilin-164052
B32: 185071 (designed binder)
bis-ubiquitin mutein: B27 bis-ubiquitin mutein with P8M, G62W, F63G, A64G, M82L, T140P, T141S, F142I
notes: also called Affilin-185071
B33: 161438 (designed binder)
bis-ubiquitin mutein: B27 bis-ubiquitin mutein with P8H, G62S, Q84R
notes: also called Affilin-161438
B34: 161644 (designed binder)
bis-ubiquitin mutein: B27 bis-ubiquitin mutein with G62S, F63Y
notes: also called Affilin-161644
B35: 163970 (designed binder)
bis-ubiquitin mutein: B27 bis-ubiquitin mutein with R6W, R66L
notes: also called Affilin-163970
B36: 192444 (designed binder)
bis-ubiquitin mutein: B27 bis-ubiquitin mutein with P8L, K33T, M82L, K124T, T140P, T141S, F142I
notes: the FLAG-tagged form is m6; also called Affilin-192444
B37: SEQ ID NO: 15 (motif GFAHR and WTTTF) (designed binder)
chain: B27 bis-ubiquitin mutein with P8M

Positions count from the first letter of the chain named.

One assay addresses T1, PSMA (prostate specific membrane antigen) expressed on cells (human, UniProt Q04609 1-750).
T1 construct: whole, on cells; also called cell surface-exposed PSMA; PSMA on LNCaP-cells
Briefly: flow cytometry on PSMA-expressing cells (LNCaP, HEK293-PSMA), paragraph 135. The procedure: Flow cytometry was used to analyze the binding of PSMA binding proteins to cell surface-exposed PSMA. PSMA overexpressing human prostate carcinoma cell line LNCaP, PSMA overexpressing transfected HEK293-PSMA-cells, PSMA non-expressing PC3-cells and empty vector control HEK293-pEntry-cells were used. Cells were trypsinized and resuspended in medium containing FCS, washed and stained in pre-cooled FACS blocking buffer. A cell concentration of 1×10⁶ cells/ml was prepared for cell staining and 100 μl were respectively filled into the wells of a 96 well plate (Greiner) in triplicate for each cell line. Different concentrations, for example 50 nM of PSMA binding proteins or 0.5 μg/ml monoclonal anti-human-PSMA antibody (clone LNI-17; Biolegend; 342502) as positive control were added to PSMA overexpressing and control cells in several experiments. PSMA-binding proteins included C-terminal Strep-tags (see e.g. SEQ ID NO: 71) for purification and detection purposes. After 45 min the supernatants were removed and 100 μl/well rabbit anti-Strep-Tag antibody (obtained from GenScript; A00626), 1:300 diluted in FACS blocking buffer were added. Anti-PSMA antibody was detected with anti-mouse-IgG-Alexa 488 (Invitrogen; A-10680) with a dilution of 1:1000 in the positive control wells. After removal of the anti-Strep-Tag antibody from the other wells goat anti-rabbit IgG Alexa Fluor 488 antibody (obtained from Invitrogen; A11008) was applied in a 1:1000 dilution. Flow cytometry measurement was conducted on the Guava easyCyte 5HT device from Merck-Millipore at excitation wavelength 488 nm and emission wavelength 525/30 nm. […] Positive binding on PSMA-expressing cells was also observed for anti-PSMA-antibody.
As for B1, the binding result is listed as “binds”.

B2: the binding result is recorded as “binds”.

For the molecule B3, the binding result is “binds”.

With B4, the binding result is listed as “binds”.

B5: the binding result is listed as “binds”.

Turning to B6, the binding result is reported as “binds”.

For B7, the binding result is recorded as “binds”.

For B8, the binding result is listed as “binds”.

Take B9: the binding result is “binds”.

For B10, the binding result is “binds”.

As to B11, the binding result was “binds”.

For the next assay, the target named is T2, His-Fc-PSMA (extracellular domain of human PSMA, residues 45-750, fused with the Fc region of human IgG1 and … (human, UniProt Q04609 45-750)).
T2 construct: range 45-750; Made in Expi293F cells; Order of parts follows the printed name His-Fc-PSMA; also called PSMA-Fc; hPSMA-Fc; not shown: N-terminal His-tag; Fc region of human IgG1
Briefly: SPR (Biacore), PSMA-Fc immobilized. From the text: (§1) A CM5 sensor chip (GE Healthcare) was equilibrated with SPR running buffer. Surface-exposed carboxylic groups were activated by passing a mixture of EDC and NHS to yield reactive ester groups. 700-1500 RU PSMA-Fc (on-ligand) were immobilized on a flow cell, IgG-Fc (off-ligand) was immobilized on another flow cell at a ratio of 1:3 (hlgG-Fc:Target) to the target. Injection of ethanolamine after ligand immobilization was used to block unreacted NHS groups. Upon ligand binding, protein analyte was accumulated on the surface increasing the refractive index. This change in the refractive index was measured in real time and plotted as response or resonance units (RU) versus time. The analytes were applied to the chip in serial dilutions with a flow rate of 30 μl/min. The association was performed for 120 seconds and the dissociation for 360 seconds. After each run, the chip surface was regenerated with 30 μl regeneration buffer and equilibrated with running buffer. A dilution series served as positive control, whereas a dilution series of unmodified ubiquitin represents the negative control. The control samples were applied to the matrix with a flow rate of 30 μl/min, while they associate for 60 seconds and dissociate for 120 seconds. Regeneration and re-equilibration were performed as previously mentioned. Binding studies were carried out by the use of the Biacore 3000 (GE Healthcare); data evaluation was operated via the BIAevaluation 3.0 software, provided by the manufacturer, by the use of the Langmuir 1:1 model (RI=0). After fitting the data with a 1:1 langmuir model, for example, KD values were calculated and shown in FIG. 1, FIG. 2, FIG. 3, and Table 2. Evaluated dissociation constants (KD) were standardized against off-target and indicated.
As a reminder, the Kd is the equilibrium constant for the complex coming apart. In turn, B12 came in with a Kd of 38.1 nM.

For B13, the equilibrium dissociation constant (Kd) is 0.0243 nM.

In the case of B14, the Kd amounted to 5.2 nM. Compared with the last molecule, the Kd is about 210-fold higher.

Molecule B15 yielded a Kd of 1.73 nM.

With B16, binding was put at a Kd of 14.7 nM.

As for B17, binding was put at a Kd of 14.6 nM.

The target of a further assay is T2, His-Fc-PSMA (extracellular domain of …). Briefly: SPR (Biacore), PSMA-Fc immobilized; unit not printed in this figure, M as in FIGURE 1.
Source text: as §1
For orientation: Surface plasmon resonance follows binding to a sensor surface in real time, without labels.
In turn, B18 gave a Kd of 7.29 nM. In other words, the single-digit nanomolar range.

The molecule B19 came in with a Kd of 51.7 nM.

B20 showed a dissociation constant Kd of 77.8 nM.

B21: binding was characterised by a dissociation constant (Kd) of 40 nM.

For B22, the Kd was determined as 63.6 nM.

Molecule B23 returned a Kd of 87.7 nM.

In turn, B24 gave a Kd of 39.8 nM.

B25 displayed a Kd of 41.1 nM.

As to B26, binding was characterised by a dissociation constant (Kd) of 43.5 nM. The Kd values of the last two molecules are within 1.5-fold of each other.

Take B27: the Kd was found to be 13.5 nM.

As for B28, binding was characterised by a dissociation constant (Kd) of 24.3 nM.

For B29, the Kd was 13.5 nM.

For B30, the dissociation constant (Kd) was found to be 326 nM.

For the molecule B31, the Kd is 16.7 nM.

Regarding B32, the Kd is 219 nM.

B33: the affinity, expressed as Kd, was 23.3 nM.

In the case of B34, binding was put at a Kd of 30.1 nM.

Consider B35, for which the Kd came to 11 nM.

For the molecule B36, binding was characterised by a dissociation constant (Kd) of 5.35 nM. This Kd lies about 2.1-fold lower than the previous one.

The molecule B37 gave a dissociation constant (Kd) of 4.32 nM. This Kd and that of the molecule before are within 1.5-fold of each other.

Values taken from patent US20220168386A1 (NAVIGO PROTEINS, published 2022).
